Experimental data taken from the supplement of paper PMC10032668.
This is one part of the list. Only hits are listed; about a third recur on repeated control peptides.

Key:
Assay in all cases: PRISMA enrichment of interactor (LFQ) in peptide spot vs all other peptide spots (log2 fold change); higher = stronger / more specific binding of the interactor to the peptide
AKR1A1, P14550 = target: AKR1A1, P14550
Experimental: (§1)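 PRISMA: 221 full-length sORF-encoded peptides (3-15 aa), plus SOS1/GLUT1 control peptides, were spot-synthesized on cellulose membranes in triplicate. Membranes were incubated with HEK293T lysate, and bound proteins were identified by LC-MS/MS with LFQ. Enrichment is the log2 fold change versus all other peptide spots; only significant interactors are listed (cutoff c=6, x0=2.8).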

ANP32B, Q92688 = target: ANP32B, Q92688
Experimental: as §1

ANP32E, Q9BTT0 = target: ANP32E, Q9BTT0
Experimental: as §1

ASNA1, O43681 = target: ASNA1, O43681
Experimental: as §1

MRPL38, Q96DV4 = target: MRPL38, Q96DV4
Experimental: as §1

NAP1L1, P55209 = target: NAP1L1, P55209
Experimental: as §1

STAG2, Q8N3U4 = target: STAG2, Q8N3U4
Experimental: as §1

STXBP3, O00186 = target: STXBP3, O00186
Experimental: as §1

MRKLRPRKVEALV [NRSN2]
PRISMA enrichment of interactor (log2) (AKR1A1, P14550): 4.85
PRISMA enrichment of interactor (log2) (ANP32B, Q92688): 7.02
PRISMA enrichment of interactor (log2) (ANP32E, Q9BTT0): 7.12
PRISMA enrichment of interactor (log2) (ASNA1, O43681): 5.32
PRISMA enrichment of interactor (log2) (MRPL38, Q96DV4): 5.41
PRISMA enrichment of interactor (log2) (NAP1L1, P55209): 5.78
PRISMA enrichment of interactor (log2) (STAG2, Q8N3U4): 5.82
PRISMA enrichment of interactor (log2) (STXBP3, O00186): 11.6
